Reference: PubChem BioAssay AID1259415 (National Center for Advancing Translational Sciences (NCATS), 2018)
The campaign covered roughly 410,000 compounds. About 18,000 (4.4%) were called active. The inconclusive results got no clear call from the source; some entries with a clear call stand among them for comparison. Rule as the data show it: active = activity change below about -60%; inconclusive = no clear call, values can overlap the other calls; inactive = above about -39%.

test: qHTS Assay for inhibitors of the human cytomegalovirus (HCMV); conditions: HFF cells, HCMV-luciferase reporter, 72 h; at 57.5 µM; hits give low values
In short: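 Two-dose cell screen: HFF monolayers treated with compounds and infected with luciferase-expressing HCMV at 1 PFU/cell, 72 h at 37C, then lysed for luciferase measurement.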
% is scaled to controls: 0 for no effect and ±100 for the full control effect.

SMILES	activity change, negative = inhibition
O=C(CCSCc1ccc(Cl)cc1)NC1CCCC1	active: -102%
Cc1ccc(CCNC(=O)CN2C(=O)COc3ccc(S(=O)(=O)N4CCCCC4)cc32)cc1	inconclusive: -44.5%
COc1ccc(Nc2nc(N)c([N+](=O)[O-])c(NC3CCCCC3)n2)cc1	inconclusive: -46.7%
CCCCCNC(=O)C(c1ccccc1F)n1c(=O)c(-c2ccco2)nc2ccccc21 (stereo unspecified)	inconclusive: -53.3%
Cn1cc(Cl)c(C(=O)Nc2nc3ccc([N+](=O)[O-])cc3s2)n1	inactive: -16.3%
NC(=O)c1cc(Cl)ccc1OCC(=O)N1CCCc2ccccc21	inconclusive: -57.6%
CCCCCCCN1C(Nc2ccccc2)=NC[C@@H]1Cc1ccccc1	inconclusive: -47.4%
Cc1ccc(/C=C2\SC(=S)N(CCCC(=O)Nc3ccccc3C(=O)O)C2=O)cc1	inconclusive: -51.2%
CC(C)C[C@@]12C(=O)N(c3cccc(Br)c3)C(=O)N1[C@H](c1ccc(F)cc1)[C@@H]1C(=O)N(C3CCCCC3)C(=O)[C@@H]12	inactive: 11.3%
CCC(C)NC(=O)Cn1c(=O)n(CCCC(=O)NCc2ccc(C)cc2)c(=O)c2ccccc21 (stereo unspecified)	inactive: 6.07%
COc1ccc(C)c2sc(N(CCN(C)C)C(=O)/C=C/c3cccs3)nc12	inconclusive: -40.6%
O=C(Nc1ccc(Oc2ccccc2)cc1)c1cnc2n(c1=O)CCS2	active: -85.8%
CC1CCCCN1S(=O)(=O)c1ccc(F)c(C(=O)Nc2ccccc2C(F)(F)F)c1 (stereo unspecified)	inactive: 11%
Cc1n[nH]c(=S)n1Cc1ccccc1	active: -82.2%
Oc1ccccc1-[n+]1c(-c2ccccc2)cc(-c2ccccc2)cc1-c1ccccc1	active: -83.9%
Cc1c(CCO)sc[n+]1CC(=O)OCCC12CC3CC(CC(C3)C1)C2	inconclusive: -54.8%
CCOC(=O)c1cnc2ccccc2c1NCc1ccco1	inconclusive: -47.7%
Cc1ccc(-c2nc3c(Br)cc(C)cn3c2Cc2cccc(Cl)c2)cc1	inactive: 92.6%
N#CCCN(Cc1cccnc1)C(=S)NC(=O)c1ccccc1	inconclusive: -53.9%
O=c1[nH]n(-c2ccc([N+](=O)[O-])cc2)c(=O)c2ccccc12	inconclusive: -40.7%
C=CCOC(=O)/C(=C/c1ccco1)NC(=O)/C=C/c1ccccc1	inconclusive: -51.4%
CCOc1ccc(NC(=O)CSc2cc(C)c3ccccc3n2)cc1	inconclusive: -42.9%

SMILES	activity change, negative = inhibition
COc1ccc(OC)c(CCNC(=O)CCCn2c(=O)c3cccn3c3ccccc32)c1	inconclusive: -47%
O=C(CNC(=O)c1cccc(F)c1)N/N=C/c1cc(Br)ccc1OC(=O)/C=C/c1ccco1	active: -101%
O=C(Nc1ccc(Cl)cc1)C1Cc2c(-c3ccccc3)ccnc2O1 (stereo unspecified)	inconclusive: -44.7%
CCN(CC)CCCNC(=O)c1oc2ccc(S(=O)(=O)N3CC(C)CC(C)C3)cc2c1C (stereo unspecified)	active: -98.2%
CC[C@H](NC(=O)CC[C@H]1O[C@@H](n2cnc3c(NC(=O)c4ccccc4)ncnc32)[C@H](O)[C@@H]1O)c1ccccc1	inactive: -21.2%
N#C/C(=C/c1cn[nH]c1-c1cccc(Br)c1)C(=O)O	inconclusive: -49.2%
Cc1nc2c(Cl)cc(Cl)cc2[nH]1	active: -65.5%
COc1ccccc1C(CNC(=O)c1cccc(S(=O)(=O)Nc2ccc(C)cc2)c1)N(C)C (stereo unspecified)	active: -76.4%
O=C(C/C=N\OCc1ccc([N+](=O)[O-])cc1)Nc1ccc(Br)cc1	active: -65.5%
CN(CC(=O)Nc1ccc(N2CCOCC2)cc1)C(=O)c1cc(S(=O)(=O)N(C)C)ccc1Cl	inactive: 47%
O=C(CN1CCCCCC1)NN(Cc1ccccc1)c1ccccc1	inconclusive: -52.7%
CCC(/C=N/NC(=O)C(=O)N/N=C/C(CC)CC)CC	inactive: -36.4%
N#CCSc1nnc(COc2ccccc2)n1-c1ccccc1	inconclusive: -59%
Nc1nccnc1C(=O)OCC(=O)NCCc1ccc(Cl)cc1	inconclusive: -43.1%
COCCNc1nnc(SCC(=O)Nc2nnc(-c3ccccc3)o2)s1	inactive: -33.5%
O=C(CN(C(=O)CNS(=O)(=O)c1ccc(F)cc1)c1ccc(F)cc1)NCc1ccco1	inconclusive: -41.4%
CN(C)CCOC1c2ccccc2CCc2ccc3ccccc3c21 (stereo unspecified)	inconclusive: -50.3%
CCCCn1c2ccccc2c2nnc(SCC(=O)NC3=NN=C(c4ccccc4)CS3)nc21	inconclusive: -53.2%
Cn1cc(CCNC(=O)N2CCOC2=O)c2ccccc21	inactive: 17.9%
Cc1ccc2sc(NC(=O)c3ccc(N4C(=O)CCC4=O)cc3)nc2c1C	inconclusive: -47.5%
O=C(Oc1cccc(N2C(=O)C3C4c5ccccc5C(c5ccccc54)C3C2=O)c1)c1ccco1 (stereo unspecified)	inconclusive: -49.6%
CN(C)C(=O)/C(=C/c1ccc(-c2cccc([N+](=O)[O-])c2)o1)NC(=O)c1ccccc1	inconclusive: -45.6%

Nothing new here: 26 of the compounds above.
SMILES	activity change, negative = inhibition
Cc1ccc(-c2nc3c(Br)cc(C)cn3c2Cc2cccc(Cl)c2)cc1	inactive: 92.6%
N#CCCN(Cc1cccnc1)C(=S)NC(=O)c1ccccc1	inconclusive: -53.9%
O=c1[nH]n(-c2ccc([N+](=O)[O-])cc2)c(=O)c2ccccc12	inconclusive: -40.7%
C=CCOC(=O)/C(=C/c1ccco1)NC(=O)/C=C/c1ccccc1	inconclusive: -51.4%
CCOc1ccc(NC(=O)CSc2cc(C)c3ccccc3n2)cc1	inconclusive: -42.9%
COc1ccc(OC)c(CCNC(=O)CCCn2c(=O)c3cccn3c3ccccc32)c1	inconclusive: -47%
O=C(CNC(=O)c1cccc(F)c1)N/N=C/c1cc(Br)ccc1OC(=O)/C=C/c1ccco1	active: -101%
O=C(Nc1ccc(Cl)cc1)C1Cc2c(-c3ccccc3)ccnc2O1 (stereo unspecified)	inconclusive: -44.7%
CCN(CC)CCCNC(=O)c1oc2ccc(S(=O)(=O)N3CC(C)CC(C)C3)cc2c1C (stereo unspecified)	active: -98.2%
CC[C@H](NC(=O)CC[C@H]1O[C@@H](n2cnc3c(NC(=O)c4ccccc4)ncnc32)[C@H](O)[C@@H]1O)c1ccccc1	inactive: -21.2%
N#C/C(=C/c1cn[nH]c1-c1cccc(Br)c1)C(=O)O	inconclusive: -49.2%
Cc1nc2c(Cl)cc(Cl)cc2[nH]1	active: -65.5%
COc1ccccc1C(CNC(=O)c1cccc(S(=O)(=O)Nc2ccc(C)cc2)c1)N(C)C (stereo unspecified)	active: -76.4%
O=C(C/C=N\OCc1ccc([N+](=O)[O-])cc1)Nc1ccc(Br)cc1	active: -65.5%
CN(CC(=O)Nc1ccc(N2CCOCC2)cc1)C(=O)c1cc(S(=O)(=O)N(C)C)ccc1Cl	inactive: 47%
O=C(CN1CCCCCC1)NN(Cc1ccccc1)c1ccccc1	inconclusive: -52.7%
CCC(/C=N/NC(=O)C(=O)N/N=C/C(CC)CC)CC	inactive: -36.4%
N#CCSc1nnc(COc2ccccc2)n1-c1ccccc1	inconclusive: -59%
Nc1nccnc1C(=O)OCC(=O)NCCc1ccc(Cl)cc1	inconclusive: -43.1%
COCCNc1nnc(SCC(=O)Nc2nnc(-c3ccccc3)o2)s1	inactive: -33.5%
O=C(CN(C(=O)CNS(=O)(=O)c1ccc(F)cc1)c1ccc(F)cc1)NCc1ccco1	inconclusive: -41.4%
CN(C)CCOC1c2ccccc2CCc2ccc3ccccc3c21 (stereo unspecified)	inconclusive: -50.3%
CCCCn1c2ccccc2c2nnc(SCC(=O)NC3=NN=C(c4ccccc4)CS3)nc21	inconclusive: -53.2%
Cn1cc(CCNC(=O)N2CCOC2=O)c2ccccc21	inactive: 17.9%
Cc1ccc2sc(NC(=O)c3ccc(N4C(=O)CCC4=O)cc3)nc2c1C	inconclusive: -47.5%
O=C(Oc1cccc(N2C(=O)C3C4c5ccccc5C(c5ccccc54)C3C2=O)c1)c1ccco1 (stereo unspecified)	inconclusive: -49.6%

(continued)

SMILES	activity change, negative = inhibition
Cc1ccc2c(c1)-c1cc(C)nn1C(c1sccc1C)N2 (stereo unspecified)	inconclusive: -47.4%
CCc1cc(=O)oc2c3c(c(Cl)cc12)OCN(Cc1cccc(OC)c1)C3	inactive: 4.98%
CN(C)c1ccc(NC(=O)CSc2nc(N)c(C(=O)Nc3ccc(N(C)C)cc3)s2)cc1	inconclusive: -59.6%
CCn1c(-c2ccccn2)nc2cc(S(=O)(=O)N(C)C)ccc21	inactive: -7.12%
Nc1nc(SCc2ccccc2)c2ncn(C3CCCCC3)c2n1	inconclusive: -42%
Cc1cc(Cl)ccc1NC(=O)c1cc(S(=O)(=O)N2CCOCC2)cn1C	inconclusive: -46.7%
COc1ccc(C)cc1NC(=O)C(OC(=O)CNC(=O)c1ccc(Br)cc1)c1ccccc1 (stereo unspecified)	inactive: 42.6%
CN(CCC#N)C(=S)Nc1ccc(S(=O)(=O)N2CCOCC2)cc1	inconclusive: -43.8%
Nc1ccc(C(=O)OCCCc2nc3cc4ccccc4cc3[nH]2)cc1	inconclusive: -46.9%
Cc1ccc(-n2nc3c(=O)n(C(C)C(=O)NCCC4=CCCCC4)nc(C)c3c2C)cc1 (stereo unspecified)	active: -61.4%
C[C@H](CO)N1C[C@H](C)[C@@H](CN(C)C(=O)Nc2ccc3c(c2)OCO3)Oc2ccc(NC(=O)Nc3ccc4c(c3)OCO4)cc2C1=O	inactive: -2.4%
CCc1nnc(N/N=C/c2c(C)[nH]c3ccccc23)n1N	active: -90.2%
COC(=O)c1ccc(CSc2nc3c([nH]c4ccccc43)c(=O)n2-c2ccc(Cl)cc2)o1	inconclusive: -56.1%
O=C(NC1CCCCCCC1)c1cc(COc2ccc3ncccc3c2)on1	inconclusive: -56.5%
O=C(N/N=C/c1ccccc1)c1ccc2c(c1)OCO2	inconclusive: -44.1%
O=C(O)CCc1ccc(-c2cccs2)n1NC(=O)c1ccc(Cl)cc1	inactive: 42%
Cc1sc2nc3ccc(N4CCCCC4)nn3c(=O)c2c1C	inactive: -20.2%
CCc1ccc(OCc2ccc(C(=O)O)o2)cc1	inactive: -20.2%
COc1cc2oc3ccccc3c2cc1N(CC(=O)N(C)C)S(=O)(=O)c1ccccc1	inactive: 75.9%
Cc1c(CNCCc2ccccc2)c(C(=O)O)c(C)n1-c1ccccc1	inconclusive: -55.2%
Cc1ccc(S(=O)(=O)CCC(=O)O)cc1C	inconclusive: -40.2%
COc1ccc(-c2noc(N3CCC(C(=O)Nc4cc(OC)ccc4OC)CC3)n2)cc1	inactive: -22.5%

SMILES	activity change, negative = inhibition
Cc1ccc(S(=O)(=O)N(C)[C@H]2C[C@H]3c4[nH]c5ccccc5c4CCN3C[C@H]2[C@H](C)O)cc1	inconclusive: -52.4%
COc1ccc(NC(=O)CN(C)C(=O)CCCc2c[nH]c3ccccc23)cc1	inactive: -9.89%
CC(C)CCNC(=S)Nc1ccc2nc3n(c(=O)c2c1)CCCCC3	inconclusive: -48.7%
O=C1C(=O)N(CCS(=O)(=O)c2ccccc2)c2ccc(F)cc21	inconclusive: -49.5%
O=C(c1ccc(S(=O)(=O)N2CCCC2)cc1)N1CCCCCC1	inconclusive: -52.7%
COc1ccc(-c2nn(-c3ccccc3)cc2/C=N/Nc2ccc3ccccc3n2)cc1OC	inactive: -25.7%
CCCCC(=O)OC1CCC2C3CCc4cc(O)ccc4C3CCC12C (stereo unspecified)	inconclusive: -54.8%
Cc1ccc(C(=O)N2NC(c3ccc(F)cc3)C3C(=O)N(c4ccc(C)cc4)C(=O)C32)cc1 (stereo unspecified)	inactive: 20.7%
Cc1c(O)ccc(NC(=O)/C=C/c2ccccc2)c1C	inconclusive: -53%
COc1cc(C(=O)Oc2ccc3ccc(O)cc3c2)cc(OC)c1OC	inactive: 29.8%
CC(C)(C)OC(=O)CN1C(=O)C(Sc2n[nH]c(-c3ccccc3)n2)CCc2ccccc21 (stereo unspecified)	inconclusive: -48.3%
Cc1nn(-c2ccccc2)c(C)c1C(=O)OCC(=O)Nc1ccccc1	inactive: 10.2%
COC(=O)NNC(=O)COc1ccc(Cl)cc1	active: -108%
CCOC(=O)Nc1ccc2c(c1)N(C(=O)CN(C)C)c1ccccc1CC2	inconclusive: -46%
Fc1ccc(-c2noc3ncnc(NCCc4ccccc4)c23)cc1	inconclusive: -50.3%
CSc1nnc2c3cc(F)ccc3n(Cc3ccccc3)c2n1	inconclusive: -40.1%
Cc1ccc(S(=O)(=O)Nc2ccc3c(c2)C(=O)c2ccccc2-3)cc1	inconclusive: -47.1%
O=C(CSC(=S)N1CCCC1)Nc1ncc(Cl)cc1Cl	inconclusive: -40.7%
COc1ccc(CN(C)Cc2nc(Cc3cccc(F)c3)no2)c2cccnc12	active: -82.2%
Cc1ccc2[nH]c(-c3cccc(F)c3)cc(=O)c2c1	active: -68.9%
